# The list shows a part of the results. Many values rest on one well or one pass, so single values are uncertain.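 Imaging used 1,536-well plates; nuclei positive for cleaved PARP by antibody were divided by total DNA-stained nuclei to yield the apoptosis fraction. Doses for screening kept most cells viable, and cell lines differ markedly in resting and induced cleaved-PARP levels.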
# Key:
# Assay in all cases: cleaved PARP positive nuclei fraction relative to DMSO control; melanoma cells; higher = more apoptosis
# Conditions in all cases: library dose: low library concentration; 72 h
# [1] = test system: 501Mel
# [2] = test system: A101D
# [3] = test system: A2058
# [4] = test system: A375
# [5] = test system: C32
# [6] = test system: CBRC008 (line from a melanoma biopsy)
# [7] = test system: CBRC014 (line from a melanoma biopsy)
# [8] = test system: CBRC016 (line from a melanoma biopsy)
# [9] = test system: CBRC017 (line from a melanoma biopsy)
# [10] = test system: CBRC034 (line from a melanoma biopsy)
# [11] = test system: COLO792
# [12] = test system: COLO800
# [13] = test system: COLO829
# [14] = test system: G361
# [15] = test system: IPC-298
# [16] = test system: IST-MEL1
# [17] = test system: LB2518-MEL
# [18] = test system: LOXIMVI
# [19] = test system: MEL-HO
SMILES,cleaved PARP positive nuclei fraction [1],cleaved PARP positive nuclei fraction [2],cleaved PARP positive nuclei fraction [3],cleaved PARP positive nuclei fraction [4],cleaved PARP positive nuclei fraction [5],cleaved PARP positive nuclei fraction [6],cleaved PARP positive nuclei fraction [7],cleaved PARP positive nuclei fraction [8],cleaved PARP positive nuclei fraction [9],cleaved PARP positive nuclei fraction [10],cleaved PARP positive nuclei fraction [11],cleaved PARP positive nuclei fraction [12],cleaved PARP positive nuclei fraction [13],cleaved PARP positive nuclei fraction [14],cleaved PARP positive nuclei fraction [15],cleaved PARP positive nuclei fraction [16],cleaved PARP positive nuclei fraction [17],cleaved PARP positive nuclei fraction [18],cleaved PARP positive nuclei fraction [19]
"COc1cc([C@@H]2c3cc4c(cc3[C@@H](O[C@@H]3O[C@@H]5CO[C@@H](C)O[C@H]5[C@H](O)[C@H]3O)[C@H]3COC(=O)[C@H]23)OCO4)cc(OC)c1O [etoposide] + CN1CCN(c2ccc3nc(-c4c(N)c5c(F)cccc5[nH]c4=O)[nH]c3c2)CC1 [Dovitinib] (first compound 0.02 µM, partner dose 0.1 µM)",120%,225%,205%,112%,91.1%,227%,90.7%,48.8%,90%,138%,64.2%,119%,101%,94.6%,138%,124%,54.4%,34.4%,96.3%
"Cc1cn(-c2cc(NC(=O)c3ccc(C)c(Nc4nccc(-c5cccnc5)n4)c3)cc(C(F)(F)F)c2)cn1 [nilotinib] + C[C@]1(O)C[C@@H](c2nc(-c3ccc4ccc(-c5ccccc5)nc4c3)c3c(N)nccn32)C1 [OSI906] (first compound 0.2 µM, partner dose 0.4 µM)",102%,343%,116%,567%,177%,344%,92.2%,80.9%,215%,68.1%,41.2%,103%,18.2%,68.5%,49.5%,48.3%,104%,86%,80.4%
"CC[C@]1(O)C[C@H]2CN(CCc3c([nH]c4ccccc34)[C@@](C(=O)OC)(c3cc4c(cc3OC)N(C=O)[C@H]3[C@@](O)(C(=O)OC)[C@H](OC(C)=O)[C@]5(CC)C=CCN6CC[C@]43[C@@H]65)C2)C1 [vincristine] + CNC(=O)c1cc(Oc2ccc(NC(=O)Nc3ccc(Cl)c(C(F)(F)F)c3)cc2)ccn1 [sorafenib] (first compound 0.0001 µM, partner dose 0.4 µM)",119%,73.6%,1540%,36.1%,94.4%,237%,92.4%,148%,155%,79.7%,55.9%,74%,184%,103%,96.6%,68.8%,241%,168%,121%
"O=c1[nH]nc(Sc2ncc([N+](=O)[O-])s2)n1-c1ccc2c(c1)OCCO2 + C[C@]1(O)C[C@@H](c2nc(-c3ccc4ccc(-c5ccccc5)nc4c3)c3c(N)nccn32)C1 [OSI906] (first compound 0.2 µM, partner dose 0.4 µM)",108%,84.4%,60.4%,485%,85.6%,86.8%,99%,154%,128%,133%,112%,87%,143%,150%,182%,63.3%,217%,137%,83.3%
"O=c1[nH]nc(Sc2ncc([N+](=O)[O-])s2)n1-c1ccc2c(c1)OCCO2 + C[C@]1(c2nc3c(C(N)=O)cccc3[nH]2)CCCN1 [Veliparib] (first compound 0.2 µM, partner dose 1.4 µM)",91.1%,93.8%,202%,112%,127%,71.5%,75%,96.2%,85.8%,79.5%,47.6%,125%,147%,87.1%,85.1%,61.7%,90.9%,47.6%,137%
"Cc1cc(Nc2cc(N3CCN(C)CC3)nc(Sc3ccc(NC(=O)C4CC4)cc3)n2)n[nH]1 [Tozasertib] + Cn1cnc2c(F)c(Nc3ccc(Br)cc3Cl)c(C(=O)NOCCO)cc21 [selumetinib] (first compound 0.006 µM, partner dose 0.015 µM)",230%,83.1%,191%,315%,84.5%,116%,82.2%,146%,127%,82.7%,84.5%,105%,105%,73.7%,51.1%,130%,149%,155%,42.9%
"Cc1cn(-c2cc(NC(=O)c3ccc(C)c(Nc4nccc(-c5cccnc5)n4)c3)cc(C(F)(F)F)c2)cn1 [nilotinib] + Cc1nc(Nc2ncc(C(=O)Nc3c(C)cccc3Cl)s2)cc(N2CCN(CCO)CC2)n1 [dasatanib] (first compound 0.2 µM, partner dose 0.004 µM)",52.4%,96.9%,83.7%,91.2%,182%,28.1%,82.3%,41.6%,89%,93.9%,58.6%,66.8%,118%,53.7%,55.7%,163%,53%,71.6%,44.5%
"CCCCCCCCCCCCCCCCCCOP(=O)([O-])OC1CC[N+](C)(C)CC1 [Perifosine] + Nc1cccc2c1CN(C1CCC(=O)NC1=O)C2=O [lenalidomide] (first compound 0.4 µM, partner dose 1 µM)",87.8%,379%,49.3%,529%,82.5%,83.1%,204%,81.7%,88.3%,30.8%,95%,81.2%,69.7%,111%,186%,174%,109%,105%,75.9%
"Cc1cc(Nc2cc(N3CCN(C)CC3)nc(Sc3ccc(NC(=O)C4CC4)cc3)n2)n[nH]1 [Tozasertib] + Cc1cn(-c2cc(NC(=O)c3ccc(C)c(Nc4nccc(-c5cccnc5)n4)c3)cc(C(F)(F)F)c2)cn1 [nilotinib] (first compound 0.006 µM, partner dose 0.2 µM)",52%,142%,120%,451%,67.9%,23.6%,92.4%,25.4%,118%,61.7%,50.5%,77.1%,63.8%,237%,89.1%,208%,53.5%,63.1%,45.8%
"O=C(Nc1cc(C(F)(F)F)cc(C(F)(F)F)c1)c1cc(Cl)ccc1O + O=C(O)c1ccc2c(c1)nc(Nc1cccc(Cl)c1)c1ccncc12 [CX4945] (first compound 0.016 µM, partner dose 0.4 µM)",128%,80.2%,62.9%,108%,132%,69.2%,99.2%,152%,117%,119%,149%,51.7%,108%,143%,43.8%,108%,103%,67.7%,85.9%
"Cc1cc(Nc2cc(N3CCN(C)CC3)nc(Sc3ccc(NC(=O)C4CC4)cc3)n2)n[nH]1 [Tozasertib] + Clc1ccc(Nc2nnc(Cc3ccncc3)c3ccccc23)cc1 [vatalanib] (first compound 0.006 µM, partner dose 2 µM)",47.6%,129%,91.7%,93.6%,91.7%,85.9%,138%,152%,100%,97.2%,145%,118%,34.1%,71.9%,44.5%,64.8%,110%,103%,69.6%
"O=c1[nH]nc(Sc2ncc([N+](=O)[O-])s2)n1-c1ccc2c(c1)OCCO2 + Cc1ccc(Nc2nccc(N(C)c3ccc4c(C)n(C)nc4c3)n2)cc1S(N)(=O)=O [Pazopanib] (first compound 0.2 µM, partner dose 0.4 µM)",56.4%,49.9%,68.4%,47%,81.1%,35.3%,111%,125%,152%,136%,93.2%,163%,105%,83.7%,45.5%,67.1%,104%,273%,115%
"O=C(Nc1cc(C(F)(F)F)cc(C(F)(F)F)c1)c1cc(Cl)ccc1O + C=C(c1ccc(C(=O)O)cc1)c1cc2c(cc1C)C(C)(C)CCC2(C)C [Bexarotene] (first compound 0.016 µM, partner dose 2 µM)",141%,86.6%,138%,56.5%,78.7%,85.8%,97.6%,160%,144%,79.2%,68.5%,102%,121%,150%,60%,63.6%,96.6%,118%,81.3%
"N#CC[C@H](C1CCCC1)n1cc(-c2ncnc3[nH]ccc23)cn1 [ruxolitinib] + CC(C)C[C@H](NC(=O)[C@H](Cc1ccccc1)NC(=O)c1cnccn1)B(O)O [Bortezomib] (first compound 1 µM, partner dose 0.001 µM)",99.3%,274%,107%,71.6%,78%,362%,130%,114%,137%,148%,111%,50.5%,283%,234%,59.2%,64.7%,228%,82.3%,62.4%
"CCCCCCCCCCCCCCCCCCOP(=O)([O-])OC1CC[N+](C)(C)CC1 [Perifosine] + COc1ccc(C2=N[C@@H](c3ccc(Cl)cc3)[C@@H](c3ccc(Cl)cc3)N2C(=O)N2CCNC(=O)C2)c(OC(C)C)c1 [Nutlin-3] (first compound 0.4 µM, partner dose 0.1 µM)",65%,66.1%,50.3%,268%,71.7%,120%,77.1%,82%,130%,171%,40.9%,89.5%,117%,113%,87.4%,177%,99.2%,168%,107%
"Cc1cc(Nc2cc(N3CCN(C)CC3)nc(Sc3ccc(NC(=O)C4CC4)cc3)n2)n[nH]1 [Tozasertib] + O=C(O)c1ccc2c(c1)nc(Nc1cccc(Cl)c1)c1ccncc12 [CX4945] (first compound 0.006 µM, partner dose 0.4 µM)",114%,42.6%,127%,54.2%,156%,40.4%,100%,1110%,131%,115%,238%,66.6%,86.4%,84.6%,92.9%,268%,211%,113%,133%
"CCCCCCCCCCCCCCCCCCOP(=O)([O-])OC1CC[N+](C)(C)CC1 [Perifosine] + Cc1cn(-c2cc(NC(=O)c3ccc(C)c(Nc4nccc(-c5cccnc5)n4)c3)cc(C(F)(F)F)c2)cn1 [nilotinib] (first compound 0.4 µM, partner dose 0.2 µM)",77.8%,300%,166%,112%,82.2%,257%,95.9%,89.7%,82.7%,173%,97.3%,31.1%,65.8%,126%,88.4%,119%,208%,156%,112%

# Record cards, from the list above. Values in the order: cleaved PARP positive nuclei fraction [1]	cleaved PARP positive nuclei fraction [2]	cleaved PARP positive nuclei fraction [3]	cleaved PARP positive nuclei fraction [4]	cleaved PARP positive nuclei fraction [5]	cleaved PARP positive nuclei fraction [6]	cleaved PARP positive nuclei fraction [7]	cleaved PARP positive nuclei fraction [8]	cleaved PARP positive nuclei fraction [9]	cleaved PARP positive nuclei fraction [10]	cleaved PARP positive nuclei fraction [11]	cleaved PARP positive nuclei fraction [12]	cleaved PARP positive nuclei fraction [13]	cleaved PARP positive nuclei fraction [14]	cleaved PARP positive nuclei fraction [15]	cleaved PARP positive nuclei fraction [16]	cleaved PARP positive nuclei fraction [17]	cleaved PARP positive nuclei fraction [18]	cleaved PARP positive nuclei fraction [19]
# O=c1[nH]nc(Sc2ncc([N+](=O)[O-])s2)n1-c1ccc2c(c1)OCCO2 + Cc1ccc(Nc2nccc(N(C)c3ccc4c(C)n(C)nc4c3)n2)cc1S(N)(=O)=O [Pazopanib] (first compound 0.2 µM, partner dose 0.4 µM) is listed as 56.4%	49.9%	68.4%	47%	81.1%	35.3%	111%	125%	152%	136%	93.2%	163%	105%	83.7%	45.5%	67.1%	104%	273%	115%
# CCCCCCCCCCCCCCCCCCOP(=O)([O-])OC1CC[N+](C)(C)CC1 [Perifosine] + Nc1cccc2c1CN(C1CCC(=O)NC1=O)C2=O [lenalidomide] (first compound 0.4 µM, partner dose 1 µM) is listed as 87.8%	379%	49.3%	529%	82.5%	83.1%	204%	81.7%	88.3%	30.8%	95%	81.2%	69.7%	111%	186%	174%	109%	105%	75.9%

# Source: the supplement of paper PMC4604168 (melanoma cell lines)
